Laboratory results reported in paper PMC5651216, “Structural Basis for a Safety-Belt Mechanism That Anchors Condensin to Chromosomes”.
No constants are given. Whether binding was seen depends on the method and setting. For part of these data: Binding seen in cells or lysates may run through a third protein. Some binding calls cover weakened binding; strength is not graded here. Values belong to the binder of their own block, whether it stands above or below them.

Legend:
[1] = target: T1, Sc Brn1_(short kleisin loop) (384-417, 445-529) (S. cerevisiae) (UniProt P38170); experiment: crystal structure; Sc Ycg1–Brn1 subcomplex with a palindromic 18-bp dsDNA (1.2-fold molar excess); sitting drop at 7°C; crystal forms I and II and the short kleisin loop construct; both purified
T1 sequence: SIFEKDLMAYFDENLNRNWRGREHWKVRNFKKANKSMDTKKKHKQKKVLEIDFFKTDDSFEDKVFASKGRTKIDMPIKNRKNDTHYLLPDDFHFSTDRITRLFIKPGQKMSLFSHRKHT

[2] = target: T2, Sc Brn1_(384–529) (S. cerevisiae) (UniProt P38170); experiment: as above
T2 sequence: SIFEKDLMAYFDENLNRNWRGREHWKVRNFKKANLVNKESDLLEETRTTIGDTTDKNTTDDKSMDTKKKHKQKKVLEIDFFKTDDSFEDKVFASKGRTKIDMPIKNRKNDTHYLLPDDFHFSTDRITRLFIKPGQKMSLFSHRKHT

[3] = target: T2, Sc Brn1_(384–529) (S. cerevisiae); experiment: crystal structure; Sc Ycg1–Brn1 subcomplex without DNA; hanging-drop vapor diffusion at 20°C; both purified
[4] = target: T3, Sc Brn1-PK6 (S. cerevisiae) (UniProt P38170); experiment: co-IP; anti-PK (V5) antibody on protein A Dynabeads, lysates of yeast strains with Brn1-PK6; 50 mM TRIS–HCl pH 8.0, 100 mM NaCl, 0.25% Triton X-100; Coomassie staining or western blotting against Ycg1 or the PK6 tag
T3 sequence: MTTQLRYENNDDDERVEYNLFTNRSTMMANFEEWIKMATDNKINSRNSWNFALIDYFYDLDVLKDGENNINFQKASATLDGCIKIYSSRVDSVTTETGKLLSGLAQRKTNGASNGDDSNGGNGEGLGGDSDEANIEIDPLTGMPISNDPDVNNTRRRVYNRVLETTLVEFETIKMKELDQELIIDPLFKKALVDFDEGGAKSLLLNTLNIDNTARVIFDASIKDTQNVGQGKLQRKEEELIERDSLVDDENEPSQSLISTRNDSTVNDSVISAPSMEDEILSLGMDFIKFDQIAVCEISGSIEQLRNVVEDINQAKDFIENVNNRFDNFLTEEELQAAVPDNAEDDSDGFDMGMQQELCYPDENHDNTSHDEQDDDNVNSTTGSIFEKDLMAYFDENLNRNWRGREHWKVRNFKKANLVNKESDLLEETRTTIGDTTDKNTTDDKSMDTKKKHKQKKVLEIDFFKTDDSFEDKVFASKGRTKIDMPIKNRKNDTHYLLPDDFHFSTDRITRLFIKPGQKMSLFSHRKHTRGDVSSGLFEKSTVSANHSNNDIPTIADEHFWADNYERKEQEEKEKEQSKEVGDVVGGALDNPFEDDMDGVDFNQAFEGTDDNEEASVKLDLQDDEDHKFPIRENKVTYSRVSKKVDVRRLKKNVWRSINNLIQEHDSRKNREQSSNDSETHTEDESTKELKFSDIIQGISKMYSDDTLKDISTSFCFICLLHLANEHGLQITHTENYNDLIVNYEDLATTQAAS

[5] = target: T4, Sc Brn1_(BC1/2)-PK6 (S. cerevisiae) (UniProt P38170); experiment: as above
T4 sequence: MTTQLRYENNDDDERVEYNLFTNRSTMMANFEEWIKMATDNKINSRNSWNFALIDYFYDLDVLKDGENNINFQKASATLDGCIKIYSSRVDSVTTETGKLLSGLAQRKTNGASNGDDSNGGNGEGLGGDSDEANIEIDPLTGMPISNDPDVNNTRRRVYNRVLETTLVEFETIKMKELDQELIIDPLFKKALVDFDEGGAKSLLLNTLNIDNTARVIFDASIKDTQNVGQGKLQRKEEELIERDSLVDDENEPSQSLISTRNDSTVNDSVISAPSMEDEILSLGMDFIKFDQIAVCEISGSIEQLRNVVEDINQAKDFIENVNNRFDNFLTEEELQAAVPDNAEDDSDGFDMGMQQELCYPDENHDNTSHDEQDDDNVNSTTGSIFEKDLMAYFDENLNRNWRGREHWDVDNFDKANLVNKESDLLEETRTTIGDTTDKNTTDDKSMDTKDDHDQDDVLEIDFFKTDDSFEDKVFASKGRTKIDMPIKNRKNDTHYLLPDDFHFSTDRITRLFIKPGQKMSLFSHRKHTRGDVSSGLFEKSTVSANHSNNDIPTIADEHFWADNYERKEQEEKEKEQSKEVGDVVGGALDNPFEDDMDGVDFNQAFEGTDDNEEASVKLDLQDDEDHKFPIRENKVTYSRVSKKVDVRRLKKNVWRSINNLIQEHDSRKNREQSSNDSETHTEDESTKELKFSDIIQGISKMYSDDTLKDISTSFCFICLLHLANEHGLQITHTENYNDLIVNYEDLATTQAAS

[6] = target: T5, Sp Cnd2_(416–544) (S. pombe) (UniProt Q9Y7R3); experiment: crystal structure; Sp Cnd3–Cnd2 subcomplex without DNA; hanging-drop vapor diffusion at 7°C; selenomethionine-labeled and native crystals; both purified
T5 sequence: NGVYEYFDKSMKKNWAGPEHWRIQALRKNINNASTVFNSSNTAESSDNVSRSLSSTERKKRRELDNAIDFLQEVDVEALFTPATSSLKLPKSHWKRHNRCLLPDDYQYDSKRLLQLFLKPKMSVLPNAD

binding [1]: binds
binding [2]: binds
binding [3]: binds
B1: Sc Ycg1_(6–498, 556–932) (domain or fragment, UniProt Q06680)
chain: GIDINTKIFNSVAEVFQKAQGSYAGHRKHIAVLKKIQSKAVEQGYEDAFNFWFDKLVTKILPLKKNEIIGDRIVKLVAAFIASLERELILAKKQNYKLTNDEEGIFSRFVDQFIRHVLRGVESPDKNVRFRVLQLLAVIMDNIGEIDESLFNLLILSLNKRIYDREPTVRIQAVFCLTKFQDEEQTEHLTELSDNEENFEATRTLVASIQNDPSAEVRRAAMLNLINDNNTRPYILERARDVNIVNRRLVYSRILKSMGRKCFDDIEPHIFDQLIEWGLEDRELSVRNACKRLIAHDWLNALDGDLIELLEKLDVSRSSVCVKAIEALFQSRPDILSKIKFPESIWKDFTVEIAFLFRAIYLYCLDNNITEMLEENFPEASKLSEHLNHYILLRYHHNDISNDSQSHFDYNTLEFIIEQLSIAAERYDYSDEVGRRSMLTVVRNMLALTTLSEPLIKIGIRVMKSLSINEKDFVTMAIEIINDIRDDDIEKQESESDIINNLPPEKEASSATIVLCLTRSSYMLELVNTPLTENILIASLMDTLITPAVRNTAPNIRELGVKNLGLCCLLDVKLAIDNMYILGMCVSKGNASLKYIALQVIVDIFSVHGNTVVDGEGKVDSISLHKIFYKVLKNNGLPECQVIAAEGLCKLFLADVFTDDDLFETLVLSYFSPINSSNEALVQAFAFCIPVYCFSHPAHQQRMSRTAADILLRLCVLWDDLQSSVIPEVDREAMLKPNIIFQQLLFWTDPRNLVNQTGSTKKDTVQLTFLIDVLKIYAQIEKKEIKKMIITNINAIFLSSEQDYSTLKELLEYSDDIAENDNLDNVSKNALDKLRNNLNSLIEEINERSETQTKDENNTANDQYSSILGN

binding [4]: binds
binding [5]: binds
B2: Sc Ycg1 (endogenous) (protein, UniProt Q06680 1-1035)
chain: MQDPDGIDINTKIFNSVAEVFQKAQGSYAGHRKHIAVLKKIQSKAVEQGYEDAFNFWFDKLVTKILPLKKNEIIGDRIVKLVAAFIASLERELILAKKQNYKLTNDEEGIFSRFVDQFIRHVLRGVESPDKNVRFRVLQLLAVIMDNIGEIDESLFNLLILSLNKRIYDREPTVRIQAVFCLTKFQDEEQTEHLTELSDNEENFEATRTLVASIQNDPSAEVRRAAMLNLINDNNTRPYILERARDVNIVNRRLVYSRILKSMGRKCFDDIEPHIFDQLIEWGLEDRELSVRNACKRLIAHDWLNALDGDLIELLEKLDVSRSSVCVKAIEALFQSRPDILSKIKFPESIWKDFTVEIAFLFRAIYLYCLDNNITEMLEENFPEASKLSEHLNHYILLRYHHNDISNDSQSHFDYNTLEFIIEQLSIAAERYDYSDEVGRRSMLTVVRNMLALTTLSEPLIKIGIRVMKSLSINEKDFVTMAIEIINDIRDDDIEKQEQEEKIKSKKINRRNETSVDEEDENGTHNDEVNEDEEDDNISSFHSAVENLVQGNGNVSESDIINNLPPEKEASSATIVLCLTRSSYMLELVNTPLTENILIASLMDTLITPAVRNTAPNIRELGVKNLGLCCLLDVKLAIDNMYILGMCVSKGNASLKYIALQVIVDIFSVHGNTVVDGEGKVDSISLHKIFYKVLKNNGLPECQVIAAEGLCKLFLADVFTDDDLFETLVLSYFSPINSSNEALVQAFAFCIPVYCFSHPAHQQRMSRTAADILLRLCVLWDDLQSSVIPEVDREAMLKPNIIFQQLLFWTDPRNLVNQTGSTKKDTVQLTFLIDVLKIYAQIEKKEIKKMIITNINAIFLSSEQDYSTLKELLEYSDDIAENDNLDNVSKNALDKLRNNLNSLIEEINERSETQTKDENNTANDQYSSILGNSFNKSSNDTIEHAADITDGNNTELTKTTVNISAVDNTTEQSNSRKRTRSEAEQIDTSKNLENMSIQDTSTVAKNVSFVLPDEKSDAMSIDEEDKDSESFSEVC

binding [6]: binds
B3: Sp Cnd3_(1–438, 474–823) (domain or fragment, UniProt Q10429)
chain: MSCIQIISSSQTSIAGHRKLCNKLFTLRTQEGFETDILRALNIILTVKKGNSNADRVLRFLVTFVNYLQQKDPEIDIVQPILKHILRGLDAKDKTVRYRCCQIIARVVNCVKEIDDDLYNTLKEKLLSRVLDRESIVRLEAVVALSRLQEDTGDEENDVRNILLFLLQNDPSSEVRRSVLLNIEVSNSTLPFILERARDVDAANRKCVYARVLPKIGDFRYLSIKKRVRILKWGLNDRDESVEKAAADMLAYQWIENADNNLLELLERLDVSNNSDVAVLAIKKFFDVRVDSLSQLEFPEQFWLELTAESSLLARTFNEICIEKNYTDLLDKMPEVVQLTYYIERQYVSLRDKSSYDESCFIIEQLLYIGLSQDMVDEIGRRKLLKSLTNSLSTMALPDSLISLHIELLRKLCSSENDFCSLLVEIITEVFEQGHSQNPNELNEPEPDDMDGYKEAFNELRCLSYVQCLFENITSSLNENLYMVDMLKTLIIPAVRSHDLPIREKGLECLSLVCLLNADLAFENVPLYLHCYEKGSVVLKCTAIRTLTDMLIQHGKAKFTEYEDAISSILFEALGEFENAELQTLGAEAIAKLLVILHYRDELFLKPLIIQYFEPNTVDNHALRQVLGYFFPVYAFGAHENQWRIATIFCDALLSLLEIYRDLDEDDVQLSIGHIAQQMLDWTDNEKLYERKTQTGDDYIALNHNVHLHLANMIFESLPNASEGKERKFMISLLGKLKIPTDLPSSDYQRTKRKLETYESHGFTMDSTSLSILAKFERMLLQNEEARS
